According to patent US5674467A, “Meso-tetraphenylporphyrin complex compounds, process for their production and pharmaceutical agents containing the latter” (Institut fur Diagnostikforschung GmbH, priority 1993, dated 1997):
At least one read-out could not be matched to a standard name with certainty. At least one structure is not confirmed: it was looked up by name or label, or the drawing left a doubt.

What follows are molecules tested on mice (NMRI, Schering SPF, female) (assay: Compatibility in mice after i.v. administration, 7-day observation). Conditions: 7 days observation, > if all animals tolerated the dose, < if all died.
Type: in vivo, mouse
Experimental: Determination of Compatibility and Relaxivity of the Compounds According to the Invention
The compatibility was examined preliminarily in mice (NMRI, Schering SPF, female, about 25 g). 0.5 mmol/kg of the substance in each case was administered intravenously to a mouse. The animal died, the dose was halved and correspondingly moved, otherwise the corresponding dose was administered to 2 additional mice. The period of observation was 7 days. The compatibility is indicated with > if all animals tolerated the corresponding dose, with < if all died.

**Q.** For `CC(=O)[O-].O=C([O-])c1cccc(-c2c3nc(c(-c4cccc(C(=O)[O-])c4)c4ccc([nH]4)c(-c4cccc(C(=O)[O-])c4)c4nc(c(-c5cccc(C(=O)[O-])c5)c5ccc2[nH]5)C=C4)C=C3)c1.[Mn+3]` [Example 4 from EP 0336 879 A1], which Compatibility is on record?
**A.** < 0.25 mmol/kg

**Q.** `CC(=O)[O-].COc1ccc(-c2c3nc(c(-c4ccc(OC)c(S(=O)(=O)[O-])c4)c4ccc([nH]4)c(-c4ccc(OC)c(S(=O)(=O)[O-])c4)c4nc(c(-c5ccc(OC)c(S(=O)(=O)[O-])c5)c5ccc2[nH]5)C=C4)C=C3)cc1S(=O)(=O)[O-].[Mn+3].[Na+].[Na+].[Na+].[Na+]` [Example 17 from EP 0336 879 A1] was tested. Which Compatibility did it give?
**A.** < 0.5 mmol/kg

**Q.** Which Compatibility does the source give for “Manganese (III){5,10,15,20tetrakis-{[4carboxylic acid(2,3-dihydroxy-1-hydroxymethylpropyl)-amidephenylporphyrinacetate [Example 2 from EP 0336 879 A1]” here?
**A.** < 0.5 mmol/kg
